According to paper PMC11994915:
Results are given in words; binding and its absence hold for the method and conditions named. In cells and extracts the contact can be indirect. Some results given as binding are weak or reduced against the parent protein; the word gives no strength. Sequences can lack the tags named with a protein.

T1: PSKR1-nYFP (full-length phytosulfokine receptor 1 fused to nYFP) (Arabidopsis thaliana) (UniProt Q9ZVR7)
T1 sequence: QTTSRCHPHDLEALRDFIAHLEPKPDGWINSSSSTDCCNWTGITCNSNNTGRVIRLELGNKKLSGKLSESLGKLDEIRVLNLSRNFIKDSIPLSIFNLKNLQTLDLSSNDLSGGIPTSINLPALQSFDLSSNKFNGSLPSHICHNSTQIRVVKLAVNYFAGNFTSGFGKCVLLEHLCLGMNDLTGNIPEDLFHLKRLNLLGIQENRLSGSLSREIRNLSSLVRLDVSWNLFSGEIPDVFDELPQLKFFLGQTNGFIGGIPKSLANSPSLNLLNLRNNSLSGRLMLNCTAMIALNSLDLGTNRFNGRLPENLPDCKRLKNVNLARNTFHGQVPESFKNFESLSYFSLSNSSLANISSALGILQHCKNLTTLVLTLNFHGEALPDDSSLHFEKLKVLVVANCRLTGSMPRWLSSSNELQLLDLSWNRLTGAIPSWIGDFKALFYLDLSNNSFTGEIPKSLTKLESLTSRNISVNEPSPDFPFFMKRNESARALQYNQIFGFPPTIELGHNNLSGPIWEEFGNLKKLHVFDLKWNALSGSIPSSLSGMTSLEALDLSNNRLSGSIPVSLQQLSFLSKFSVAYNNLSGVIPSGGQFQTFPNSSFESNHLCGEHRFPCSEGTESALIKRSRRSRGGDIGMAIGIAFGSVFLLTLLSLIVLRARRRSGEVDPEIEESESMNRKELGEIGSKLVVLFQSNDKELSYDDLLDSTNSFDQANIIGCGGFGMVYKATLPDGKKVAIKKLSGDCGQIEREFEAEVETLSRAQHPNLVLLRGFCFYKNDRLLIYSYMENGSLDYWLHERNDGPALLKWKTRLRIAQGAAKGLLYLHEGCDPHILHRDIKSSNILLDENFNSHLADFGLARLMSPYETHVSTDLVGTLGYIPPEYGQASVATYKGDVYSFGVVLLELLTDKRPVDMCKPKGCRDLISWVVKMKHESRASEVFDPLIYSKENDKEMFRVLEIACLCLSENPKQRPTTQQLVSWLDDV

T2: PSKR1-nLUC (35S:PSKR1-nLUC) (Arabidopsis thaliana) (UniProt Q9ZVR7)
T2 sequence: T1 sequence

B1: BAK1-cYFP (full-length Brassinosteroid Insensitive 1 (BRI1)-Associated Kinase I fused to cYFP) (receptor, UniProt Q94F62 26-615)
chain: NAEGDALSALKNSLADPNKVLQSWDATLVTPCTWFHVTCNSDNSVTRVDLGNANLSGQLVMQLGQLPNLQYLELYSNNITGTIPEQLGNLTELVSLDLYLNNLSGPIPSTLGRLKKLRFLRLNNNSLSGEIPRSLTAVLTLQVLDLSNNPLTGDIPVNGSFSLFTPISFANTKLTPLPASPPPPISPTPPSPAGSNRITGAIAGGVAAGAALLFAVPAIALAWWRRKKPQDHFFDVPAEEDPEVHLGQLKRFSLRELQVASDNFSNKNILGRGGFGKVYKGRLADGTLVAVKRLKEERTQGGELQFQTEVEMISMAVHRNLLRLRGFCMTPTERLLVYPYMANGSVASCLRERPESQPPLDWPKRQRIALGSARGLAYLHDHCDPKIIHRDVKAANILLDEEFEAVVGDFGLAKLMDYKDTHVTTAVRGTIGHIAPEYLSTGKSSEKTDVFGYGVMLLELITGQRAFDLARLANDDDVMLLDWVKGLLKEKKLEALVDVDLQGNYKDEEVEQLIQVALLCTQSSPMERPKMSEVVRMLEGDGLAERWEEWQKEEMFRQDFNYPTHHPAVSGWIIGDSTSQIENEYPSGPR
B2: cLUC-BAK1 (35S:cLUC-BAK1) (receptor, UniProt Q94F62 26-615)
chain: B1 chain

Tests used:
[1] = molecular target: T1, PSKR1-nYFP (full-length phytosulfokine receptor 1 fused to nYFP) (Arabidopsis thaliana); assay: split reporter; BiFC: PSKR1-nYFP and BAK1-cYFP co-transferred into Arabidopsis mesophyll protoplasts, 10-12 h in W5 solution; control or 2 µM WT PSK, PSK Q5K or PSK Q5A for 10 min before confocal detection of YFP; empty nYFP or cYFP plasmids as negative controls
[2] = molecular target: T2, PSKR1-nLUC (35S:PSKR1-nLUC) (Arabidopsis thaliana); assay: split reporter; split luciferase complementation: 35S:cLUC-BAK1 and 35S:PSKR1-nLUC co-infiltrated (Agrobacterium GV3101) into N. benthamiana leaves; after 48 h control or 2 µM WT PSK, PSK Q5K or PSK Q5A for 2 h; luciferase imaging with a CCD camera

binding [1] | binding [2] | Binder
binds | – | B1
– | binds | B2
